From the supplement of paper PMC10032668
This is one part of the list. Only hits are listed; about a third recur on repeated control peptides.

Protein sequences, listed by entry. Tags and fused reporters are not part of them.
TRAPPC2L, Q9UL33, UniProt Q9UL33, whole entry: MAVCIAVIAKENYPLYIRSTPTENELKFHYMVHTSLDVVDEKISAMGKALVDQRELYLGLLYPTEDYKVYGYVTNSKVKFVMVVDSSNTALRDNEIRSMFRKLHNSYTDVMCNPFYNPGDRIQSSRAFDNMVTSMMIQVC
UBA5, Q9GZZ9, UniProt Q9GZZ9, whole entry: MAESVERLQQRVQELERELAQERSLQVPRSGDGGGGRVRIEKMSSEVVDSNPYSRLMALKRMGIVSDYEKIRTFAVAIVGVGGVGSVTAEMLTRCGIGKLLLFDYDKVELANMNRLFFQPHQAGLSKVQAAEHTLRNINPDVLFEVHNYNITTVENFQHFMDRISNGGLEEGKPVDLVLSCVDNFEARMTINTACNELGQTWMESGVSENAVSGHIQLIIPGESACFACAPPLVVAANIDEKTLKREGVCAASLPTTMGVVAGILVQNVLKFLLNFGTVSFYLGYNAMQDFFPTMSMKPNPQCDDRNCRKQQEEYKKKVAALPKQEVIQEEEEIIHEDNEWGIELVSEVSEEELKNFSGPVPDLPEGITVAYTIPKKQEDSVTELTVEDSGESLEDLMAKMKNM
MPG, P29372, UniProt P29372, whole entry: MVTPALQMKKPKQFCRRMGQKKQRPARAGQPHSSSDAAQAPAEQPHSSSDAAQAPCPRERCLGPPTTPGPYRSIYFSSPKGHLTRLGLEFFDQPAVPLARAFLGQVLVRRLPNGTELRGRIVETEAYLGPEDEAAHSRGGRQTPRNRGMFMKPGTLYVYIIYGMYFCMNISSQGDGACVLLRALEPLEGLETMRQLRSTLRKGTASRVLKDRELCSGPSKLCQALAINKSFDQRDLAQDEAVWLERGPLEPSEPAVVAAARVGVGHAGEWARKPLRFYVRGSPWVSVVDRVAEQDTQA
TF, P02787, UniProt P02787, whole entry: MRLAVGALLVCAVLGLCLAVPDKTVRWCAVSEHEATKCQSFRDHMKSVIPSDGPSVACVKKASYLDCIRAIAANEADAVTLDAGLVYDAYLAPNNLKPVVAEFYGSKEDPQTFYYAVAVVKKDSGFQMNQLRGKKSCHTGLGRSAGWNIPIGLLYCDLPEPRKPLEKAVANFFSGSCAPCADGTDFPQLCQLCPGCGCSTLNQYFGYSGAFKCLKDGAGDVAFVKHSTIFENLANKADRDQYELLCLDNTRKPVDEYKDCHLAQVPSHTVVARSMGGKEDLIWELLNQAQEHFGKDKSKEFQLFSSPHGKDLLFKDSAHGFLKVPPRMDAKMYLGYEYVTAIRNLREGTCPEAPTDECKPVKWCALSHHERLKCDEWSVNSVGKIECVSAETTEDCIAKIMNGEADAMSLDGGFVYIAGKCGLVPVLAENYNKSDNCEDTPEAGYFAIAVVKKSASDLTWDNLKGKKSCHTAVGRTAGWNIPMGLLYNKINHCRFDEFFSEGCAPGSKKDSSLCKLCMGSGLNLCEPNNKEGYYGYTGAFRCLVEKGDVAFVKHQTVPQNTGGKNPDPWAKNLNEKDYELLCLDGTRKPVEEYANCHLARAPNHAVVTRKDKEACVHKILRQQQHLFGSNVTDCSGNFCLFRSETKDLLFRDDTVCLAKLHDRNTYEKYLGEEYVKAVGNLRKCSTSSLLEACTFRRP
TUBB8, Q3ZCM7, UniProt Q3ZCM7, whole entry: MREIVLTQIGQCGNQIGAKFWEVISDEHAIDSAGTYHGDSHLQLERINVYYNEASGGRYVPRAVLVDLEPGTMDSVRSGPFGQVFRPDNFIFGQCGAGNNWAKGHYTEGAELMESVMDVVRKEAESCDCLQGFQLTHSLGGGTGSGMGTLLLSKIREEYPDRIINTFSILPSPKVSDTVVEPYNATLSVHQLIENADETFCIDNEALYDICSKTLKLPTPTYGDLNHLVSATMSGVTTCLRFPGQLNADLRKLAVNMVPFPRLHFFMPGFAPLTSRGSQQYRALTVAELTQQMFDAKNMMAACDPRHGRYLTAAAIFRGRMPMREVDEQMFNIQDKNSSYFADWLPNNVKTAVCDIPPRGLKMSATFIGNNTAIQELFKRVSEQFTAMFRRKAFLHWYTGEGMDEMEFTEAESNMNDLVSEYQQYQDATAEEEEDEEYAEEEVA
NDUFA13, Q9P0J0, UniProt Q9P0J0, whole entry: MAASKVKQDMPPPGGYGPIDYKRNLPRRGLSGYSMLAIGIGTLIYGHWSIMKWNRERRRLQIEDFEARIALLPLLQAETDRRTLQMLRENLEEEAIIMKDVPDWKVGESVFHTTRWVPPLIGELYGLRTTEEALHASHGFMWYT
TRRAP, Q9Y4A5, UniProt Q9Y4A5, whole entry: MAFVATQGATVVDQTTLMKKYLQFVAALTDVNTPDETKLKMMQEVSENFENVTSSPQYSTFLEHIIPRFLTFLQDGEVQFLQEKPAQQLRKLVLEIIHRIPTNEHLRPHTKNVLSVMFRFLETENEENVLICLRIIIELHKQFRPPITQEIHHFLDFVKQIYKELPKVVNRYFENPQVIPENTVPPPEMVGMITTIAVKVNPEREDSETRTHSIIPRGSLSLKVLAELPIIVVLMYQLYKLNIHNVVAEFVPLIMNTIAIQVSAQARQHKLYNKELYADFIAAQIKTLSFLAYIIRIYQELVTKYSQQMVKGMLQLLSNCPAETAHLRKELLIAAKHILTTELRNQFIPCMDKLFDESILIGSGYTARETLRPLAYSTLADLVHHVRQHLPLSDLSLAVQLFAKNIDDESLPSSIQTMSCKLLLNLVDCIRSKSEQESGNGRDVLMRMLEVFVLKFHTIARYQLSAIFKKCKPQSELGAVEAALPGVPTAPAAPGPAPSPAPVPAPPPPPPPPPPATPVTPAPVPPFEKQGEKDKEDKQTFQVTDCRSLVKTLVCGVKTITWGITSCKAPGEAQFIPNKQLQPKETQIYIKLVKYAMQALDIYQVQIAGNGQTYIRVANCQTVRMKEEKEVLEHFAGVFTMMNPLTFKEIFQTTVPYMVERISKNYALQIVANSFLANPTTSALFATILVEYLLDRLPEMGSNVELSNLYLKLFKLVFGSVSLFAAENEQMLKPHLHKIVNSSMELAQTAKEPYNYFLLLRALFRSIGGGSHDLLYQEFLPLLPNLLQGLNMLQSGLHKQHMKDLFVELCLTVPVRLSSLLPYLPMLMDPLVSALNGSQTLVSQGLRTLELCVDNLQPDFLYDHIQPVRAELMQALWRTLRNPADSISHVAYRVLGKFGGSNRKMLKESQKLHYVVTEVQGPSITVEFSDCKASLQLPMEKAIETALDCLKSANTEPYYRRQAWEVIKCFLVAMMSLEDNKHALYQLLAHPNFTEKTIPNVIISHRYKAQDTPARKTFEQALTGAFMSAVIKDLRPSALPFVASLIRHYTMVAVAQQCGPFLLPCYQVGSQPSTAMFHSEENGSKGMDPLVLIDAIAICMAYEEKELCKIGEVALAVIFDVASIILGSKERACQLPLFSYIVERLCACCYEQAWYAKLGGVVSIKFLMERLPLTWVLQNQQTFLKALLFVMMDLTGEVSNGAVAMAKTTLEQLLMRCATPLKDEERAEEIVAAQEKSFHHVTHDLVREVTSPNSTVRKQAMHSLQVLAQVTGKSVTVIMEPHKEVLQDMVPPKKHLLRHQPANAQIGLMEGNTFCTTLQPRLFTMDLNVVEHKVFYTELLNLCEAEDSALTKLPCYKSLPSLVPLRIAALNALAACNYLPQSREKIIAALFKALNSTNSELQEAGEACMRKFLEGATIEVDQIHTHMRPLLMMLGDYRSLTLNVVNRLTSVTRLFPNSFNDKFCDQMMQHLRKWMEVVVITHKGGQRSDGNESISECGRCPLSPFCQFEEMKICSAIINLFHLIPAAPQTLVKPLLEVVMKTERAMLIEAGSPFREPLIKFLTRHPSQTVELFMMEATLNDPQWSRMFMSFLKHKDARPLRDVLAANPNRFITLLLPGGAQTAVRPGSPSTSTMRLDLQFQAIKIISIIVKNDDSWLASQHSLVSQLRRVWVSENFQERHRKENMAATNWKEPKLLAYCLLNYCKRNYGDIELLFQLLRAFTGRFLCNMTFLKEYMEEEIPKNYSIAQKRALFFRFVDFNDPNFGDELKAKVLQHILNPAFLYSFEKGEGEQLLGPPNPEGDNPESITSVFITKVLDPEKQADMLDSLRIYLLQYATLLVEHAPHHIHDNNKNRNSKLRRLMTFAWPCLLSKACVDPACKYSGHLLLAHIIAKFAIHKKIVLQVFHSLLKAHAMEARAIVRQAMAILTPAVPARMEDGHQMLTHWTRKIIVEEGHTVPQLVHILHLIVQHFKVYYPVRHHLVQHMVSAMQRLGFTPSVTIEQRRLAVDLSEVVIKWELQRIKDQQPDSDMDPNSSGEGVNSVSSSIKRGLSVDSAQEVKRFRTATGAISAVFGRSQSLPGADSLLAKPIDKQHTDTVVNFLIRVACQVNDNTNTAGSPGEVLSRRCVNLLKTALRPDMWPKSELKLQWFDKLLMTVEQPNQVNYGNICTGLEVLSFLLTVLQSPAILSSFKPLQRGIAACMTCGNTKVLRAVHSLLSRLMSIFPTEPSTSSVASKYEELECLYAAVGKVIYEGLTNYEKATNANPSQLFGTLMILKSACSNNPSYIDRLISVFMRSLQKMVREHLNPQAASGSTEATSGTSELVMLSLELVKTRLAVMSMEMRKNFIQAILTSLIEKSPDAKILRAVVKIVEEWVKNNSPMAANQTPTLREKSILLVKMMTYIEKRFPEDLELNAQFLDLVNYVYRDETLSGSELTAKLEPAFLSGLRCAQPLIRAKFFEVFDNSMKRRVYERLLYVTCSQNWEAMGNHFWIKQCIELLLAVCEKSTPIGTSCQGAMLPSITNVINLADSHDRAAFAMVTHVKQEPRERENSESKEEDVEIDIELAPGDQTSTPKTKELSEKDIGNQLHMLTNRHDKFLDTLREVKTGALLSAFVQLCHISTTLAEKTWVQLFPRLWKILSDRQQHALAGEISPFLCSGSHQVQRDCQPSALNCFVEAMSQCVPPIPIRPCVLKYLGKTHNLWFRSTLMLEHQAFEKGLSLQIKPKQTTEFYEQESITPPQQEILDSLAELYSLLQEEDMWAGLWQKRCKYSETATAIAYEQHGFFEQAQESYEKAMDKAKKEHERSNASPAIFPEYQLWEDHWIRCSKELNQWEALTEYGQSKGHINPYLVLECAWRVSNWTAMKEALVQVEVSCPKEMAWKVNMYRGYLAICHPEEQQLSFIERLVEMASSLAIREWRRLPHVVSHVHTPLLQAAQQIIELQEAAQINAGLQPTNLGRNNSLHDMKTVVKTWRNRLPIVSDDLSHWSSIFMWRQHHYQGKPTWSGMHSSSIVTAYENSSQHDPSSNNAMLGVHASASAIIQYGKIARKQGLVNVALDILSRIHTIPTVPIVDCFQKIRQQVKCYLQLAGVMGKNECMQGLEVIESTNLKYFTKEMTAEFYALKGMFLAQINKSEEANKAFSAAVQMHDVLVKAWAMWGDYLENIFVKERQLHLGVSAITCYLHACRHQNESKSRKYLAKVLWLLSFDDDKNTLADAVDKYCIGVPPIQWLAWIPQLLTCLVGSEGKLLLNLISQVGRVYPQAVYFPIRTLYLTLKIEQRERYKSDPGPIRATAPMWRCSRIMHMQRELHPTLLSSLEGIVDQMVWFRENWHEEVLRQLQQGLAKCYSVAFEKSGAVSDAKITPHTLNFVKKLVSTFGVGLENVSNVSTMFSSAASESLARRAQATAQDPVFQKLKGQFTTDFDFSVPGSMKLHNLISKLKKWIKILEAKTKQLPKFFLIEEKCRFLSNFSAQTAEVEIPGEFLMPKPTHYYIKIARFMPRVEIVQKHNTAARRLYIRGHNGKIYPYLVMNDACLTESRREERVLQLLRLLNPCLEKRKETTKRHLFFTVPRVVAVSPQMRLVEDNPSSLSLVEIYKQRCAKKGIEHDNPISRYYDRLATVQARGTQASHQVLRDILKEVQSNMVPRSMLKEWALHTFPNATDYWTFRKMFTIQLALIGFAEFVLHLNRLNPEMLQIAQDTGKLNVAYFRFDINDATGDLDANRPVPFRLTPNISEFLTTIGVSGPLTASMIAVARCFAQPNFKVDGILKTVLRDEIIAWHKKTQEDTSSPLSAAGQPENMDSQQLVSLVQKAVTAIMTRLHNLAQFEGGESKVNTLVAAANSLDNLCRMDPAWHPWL

What was measured:
Experiment in all cases: PRISMA enrichment of interactor (LFQ) in peptide spot vs all other peptide spots (log2 fold change); higher = stronger / more specific binding of the interactor to the peptide
CEP290, O15078 = biological target: CEP290, O15078
Experimental: (§1)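 PRISMA: 15-aa overlapping tiles (offset 8 aa) of 60 microproteins, plus SOS1/GLUT1 control peptides, were spot-synthesized on cellulose membranes in triplicate. Membranes were incubated with benzonase-treated HEK293T lysate, and bound proteins were identified by LC-MS/MS with LFQ. Enrichment is the log2 fold change of each protein in one spot versus all other spots. Only interactors passing the significance cutoff are listed.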

CLASP2, O75122 = biological target: CLASP2, O75122
Experimental: as §1

FLII, Q13045 = biological target: FLII, Q13045
Experimental: as §1

GPS2, Q13227 = biological target: GPS2, Q13227
Experimental: as §1

KIF20B, Q96Q89 = biological target: KIF20B, Q96Q89
Experimental: as §1

MRPL34, Q9BQ48 = biological target: MRPL34, Q9BQ48
Experimental: as §1

PLEC, Q15149 = biological target: PLEC, Q15149
Experimental: as §1

PPM1G, O15355 = biological target: PPM1G, O15355
Experimental: as §1

SAFB, Q15424 = biological target: SAFB, Q15424
Experimental: as §1

SBNO1, A3KN83 = biological target: SBNO1, A3KN83
Experimental: as §1

SERF2, P84101 = biological target: SERF2, P84101
Experimental: as §1

TRAPPC2L, Q9UL33 = biological target: TRAPPC2L, Q9UL33
Experimental: as §1

UBA5, Q9GZZ9 = biological target: UBA5, Q9GZZ9
Experimental: as §1

CFAP97, Q9P2B7 = biological target: CFAP97, Q9P2B7
Experimental: as §1

COL4A3BP, Q9Y5P4 = biological target: COL4A3BP, Q9Y5P4
Experimental: as §1

EXOC1, Q9NV70 = biological target: EXOC1, Q9NV70
Experimental: as §1

MPG, P29372 = biological target: MPG, P29372
Experimental: as §1

MRPL38, Q96DV4 = biological target: MRPL38, Q96DV4
Experimental: as §1

NAP1L1, P55209 = biological target: NAP1L1, P55209
Experimental: as §1

REXO4, Q9GZR2 = biological target: REXO4, Q9GZR2
Experimental: as §1

SMPD4, Q9NXE4 = biological target: SMPD4, Q9NXE4
Experimental: as §1

TF, P02787 = biological target: TF, P02787
Experimental: as §1

TUBB8, Q3ZCM7 = biological target: TUBB8, Q3ZCM7
Experimental: as §1

CGGBP1, Q9UFW8 = biological target: CGGBP1, Q9UFW8
Experimental: as §1

HMGA1, P17096 = biological target: HMGA1, P17096
Experimental: as §1

MCM6, Q14566 = biological target: MCM6, Q14566
Experimental: as §1

NDUFA13, Q9P0J0 = biological target: NDUFA13, Q9P0J0
Experimental: as §1

PSMD7, P51665 = biological target: PSMD7, P51665
Experimental: as §1

RAB21, Q9UL25 = biological target: RAB21, Q9UL25
Experimental: as §1

SPCS2, Q15005 = biological target: SPCS2, Q15005
Experimental: as §1

CHAF1B, Q13112 = biological target: CHAF1B, Q13112
Experimental: as §1

CHEK1, O14757 = biological target: CHEK1, O14757
Experimental: as §1

COPZ1, P61923 = biological target: COPZ1, P61923
Experimental: as §1

PRMT3, O60678 = biological target: PRMT3, O60678
Experimental: as §1

SPTY2D1, Q68D10 = biological target: SPTY2D1, Q68D10
Experimental: as §1

SRSF11, Q05519 = biological target: SRSF11, Q05519
Experimental: as §1

TIMM8A, O60220 = biological target: TIMM8A, O60220
Experimental: as §1

TRRAP, Q9Y4A5 = biological target: TRRAP, Q9Y4A5
Experimental: as §1

ZNF668, Q96K58 = biological target: ZNF668, Q96K58
Experimental: as §1

MADVSERTLQLSVLV [MTLN]
PRISMA enrichment of interactor (log2) (CEP290, O15078): 6.2
PRISMA enrichment of interactor (log2) (CLASP2, O75122): 4.46
PRISMA enrichment of interactor (log2) (FLII, Q13045): 5.49
PRISMA enrichment of interactor (log2) (GPS2, Q13227): 5.03
PRISMA enrichment of interactor (log2) (KIF20B, Q96Q89): 6.88
PRISMA enrichment of interactor (log2) (MRPL34, Q9BQ48): 5.03
PRISMA enrichment of interactor (log2) (PLEC, Q15149): 6.23
PRISMA enrichment of interactor (log2) (PPM1G, O15355): 5.05
PRISMA enrichment of interactor (log2) (SAFB, Q15424): 5.53
PRISMA enrichment of interactor (log2) (SBNO1, A3KN83): 5.32
PRISMA enrichment of interactor (log2) (SERF2, P84101): 5.19
PRISMA enrichment of interactor (log2) (TRAPPC2L, Q9UL33): 4.06
PRISMA enrichment of interactor (log2) (UBA5, Q9GZZ9): 10.3

RHVLGLGAARRGRQR [RP11-644F5.11]
PRISMA enrichment of interactor (log2) (CFAP97, Q9P2B7): 7.12
PRISMA enrichment of interactor (log2) (COL4A3BP, Q9Y5P4): 4.51
PRISMA enrichment of interactor (log2) (EXOC1, Q9NV70): 5.09
PRISMA enrichment of interactor (log2) (MPG, P29372): 4.56
PRISMA enrichment of interactor (log2) (MRPL38, Q96DV4): 5.18
PRISMA enrichment of interactor (log2) (NAP1L1, P55209): 4.96
PRISMA enrichment of interactor (log2) (REXO4, Q9GZR2): 6.22
PRISMA enrichment of interactor (log2) (SMPD4, Q9NXE4): 7.09
PRISMA enrichment of interactor (log2) (TF, P02787): 6.22
PRISMA enrichment of interactor (log2) (TUBB8, Q3ZCM7): 5

LSRNPSGNGRSLFSI [SNHG8_2]
PRISMA enrichment of interactor (log2) (CGGBP1, Q9UFW8): 4.84
PRISMA enrichment of interactor (log2) (HMGA1, P17096): 5.15
PRISMA enrichment of interactor (log2) (MCM6, Q14566): 6.07
PRISMA enrichment of interactor (log2) (NDUFA13, Q9P0J0): 4.64
PRISMA enrichment of interactor (log2) (PSMD7, P51665): 4.77
PRISMA enrichment of interactor (log2) (RAB21, Q9UL25): 5.99
PRISMA enrichment of interactor (log2) (SPCS2, Q15005): 7.36

VLPNHRLSFLFTVSG [RP1-206D15.6]
PRISMA enrichment of interactor (log2) (CHAF1B, Q13112): 3.93
PRISMA enrichment of interactor (log2) (CHEK1, O14757): 4.79
PRISMA enrichment of interactor (log2) (COPZ1, P61923): 4.49
PRISMA enrichment of interactor (log2) (PRMT3, O60678): 4.22
PRISMA enrichment of interactor (log2) (SPTY2D1, Q68D10): 5.36
PRISMA enrichment of interactor (log2) (SRSF11, Q05519): 6.69
PRISMA enrichment of interactor (log2) (TIMM8A, O60220): 5.6
PRISMA enrichment of interactor (log2) (TRRAP, Q9Y4A5): 5.89
PRISMA enrichment of interactor (log2) (ZNF668, Q96K58): 6.13
